This is an account of results in article PMC7797037.

No constants are given. Whether binding was seen depends on the method and setting. In cells and extracts the contact can be indirect. A result given as binding can be weak or reduced; the word gives no strength. Where a sequence is shown, tags or fusion partners need not be part of it.

The test has as its target T1, GTPBP5::FLAG (C-terminal FLAG-tagged GTPBP5) (human) (UniProt Q9H4K7).
T1 sequence: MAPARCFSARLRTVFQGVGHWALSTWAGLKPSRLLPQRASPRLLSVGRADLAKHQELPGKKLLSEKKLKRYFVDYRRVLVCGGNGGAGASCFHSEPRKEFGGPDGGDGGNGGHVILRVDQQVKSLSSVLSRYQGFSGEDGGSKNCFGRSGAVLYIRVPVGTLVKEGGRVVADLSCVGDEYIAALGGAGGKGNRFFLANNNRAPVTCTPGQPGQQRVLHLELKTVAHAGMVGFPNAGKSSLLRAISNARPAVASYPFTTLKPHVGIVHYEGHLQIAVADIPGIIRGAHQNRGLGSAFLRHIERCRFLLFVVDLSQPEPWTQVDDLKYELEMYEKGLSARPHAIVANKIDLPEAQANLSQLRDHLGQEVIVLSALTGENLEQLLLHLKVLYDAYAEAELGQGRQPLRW
Nature of the test: co-IP; FLAG-IP from mitochondrial lysate, buffers with 5 mM MgCl2, elution with 3X FLAG peptide; input and eluate by western blot; no nucleotide or RNase added.

For “MTG1 (GTPBP7) (human (endogenous in HEK293T))”, the binding result is listed as “binds”.
